# Source: PubChem BioAssay AID588499 (NMMLSC, 2011)
# Screen size: about 360,000 compounds; about 610 (0.17%) were called active. Inconclusive results, whose numbers are uncertain, are shown with a selection of clear calls. No stated cut-off is given here; in the data, active means inhibition above about 30%; inconclusive means no clear call, values can overlap the other calls; inactive means below that.
# System: Botulinum neurotoxin type A light chain protease (Clostridium botulinum A str. ATCC 3502)
# Assay: blockers of BoNT/A LC substrate cleavage – biochemical, flow cytometry, MLPCN library, primary screen (AID 588499); further: plate controls were buffer without enzyme for full effect and enzyme alone for no effect
# Details: multiplex microsphere protease substrate cleavage, at 10 µM, stronger effect = higher value
row,SMILES,inhibition
1,CCCOc1ccccc1/C=C(\C#N)C(=O)Nc1cccnc1,inconclusive: -37.8%
2,CCN(CC)CCNC(=O)/C(=C/c1cn(C)c2ccccc12)NC(=O)c1ccc(OC)c(OC)c1,inconclusive: -44.6%
3,Cc1nnc(N/N=C/c2ccccc2O)n1N,inactive: -0.9%
4,O=C(c1ccc2c(c1)OCCCO2)N1CCCCC1,inconclusive: -57.2%
5,Cc1cc(C)c(S(=O)(=O)NCCn2c(C)cc3ccccc32)c(C)c1,active: 42.5%
6,Cc1ccnc(NS(=O)(=O)c2ccc(NC(=O)Cc3cccs3)cc2)n1,inconclusive: -3.4%
7,CCn1c(-c2cc(Br)ccc2O)n[nH]c1=S,inconclusive: -0.6%
8,COC(=O)[C@H](CC(C)C)NC(=O)Nc1ccccc1F,inconclusive: -56%
9,CN1CCc2c(sc(NC(=O)c3ccc(S(=O)(=O)N4CCCCCC4)cc3)c2C(N)=O)C1,inconclusive: 4.4%
10,CCCn1c(SCC(=O)OCc2ccccc2)nc2c1c(=O)n(C)c(=O)n2C,inconclusive: -5.8%
11,CCOC(=O)c1csc(COc2ccc(OC)cc2)n1,inconclusive: -17%
12,Cc1cc(C)n2nc(C(=O)Nc3ccc4c(c3)OCO4)cc2n1,inactive: 2.5%
13,CC(C)S(=O)(=O)c1csc(C(=O)Nc2ccc(F)cc2)c1N,inconclusive: 3.6%
14,O=C(c1cc(-c2ccc3c(c2)OCO3)on1)N1CCOCC1,inconclusive: -0.4%
15,Cc1noc(-c2ccccc2)c1NC(=O)Nc1ccc(Cl)cc1,inconclusive: 14.6%
16,Cc1cc(C)c2nc3sc(=Cc4ccc(-c5ccccc5C(=O)O)o4)c(=O)n3c2c1,inactive: 0.1%
17,O=C(Nc1ccccc1)c1cccnc1N1CCCC1,inconclusive: -4.3%
18,COc1ccccc1/C=C/C=N/NC(=O)c1cc(-c2ccc(C)o2)[nH]n1,inconclusive: -2.9%
19,COc1ccc(Cc2c(O)nc[nH]c2=O)cc1,inconclusive: -2.8%
20,CC(=O)NCCNC(=O)[C@H](Cc1ccccc1)NC(=O)c1cccs1,inconclusive: -1.7%

row,SMILES,inhibition
1,C=CCN1C(=O)C(CC(=O)Nc2ccc(OC)cc2)N(Cc2ccco2)C1=S (centres undefined),inconclusive: 0.6%
2,CCCCCCNC(=O)c1ncn[nH]1,inconclusive: 4%
3,CC(=O)Nc1ccc(S(=O)(=O)NCCC(=O)OCc2csc(CC(=O)Nc3ccccc3C)n2)cc1,inconclusive: -2.7%
4,Cc1cc(NC(=O)C(C)SCC(=O)N(C)CC(=O)Nc2ccc(Br)cc2C)no1 (centres undefined),inactive: 1.6%
5,Cc1cc(C)c(OCCCCNCc2ccccc2)c(Cl)c1,inconclusive: -5.9%
6,CCN(CCc1ccccc1)c1ccc2c(c1)C1CC2CCN1Cc1ccccc1 (centres undefined),inactive: -0.6%
7,Cc1sc2nc(C3CC3)nc(SCC(=O)N3c4ccccc4CC3C)c2c1C (centres undefined),inconclusive: -0.9%
8,COc1cccc(N2CCN(Cc3cccc(Cl)c3)CC2)c1,inconclusive: -1.9%
9,COC(=O)Cc1ccc(N(Cc2ccccc2F)S(=O)(=O)c2ccc(Cl)cc2)cc1,inactive: 1.2%
10,c1ccc(-c2noc(CSc3nnnn3C3CCCCC3)n2)cc1,inactive: -1.1%
11,COc1ccc(C2c3ccc4ccccc4c3Oc3ncn(CCCO)c(=N)c32)cc1 (centres undefined),inconclusive: -4.8%
12,CCOC(=O)C(C)Sc1nnc2n1C(C)(C)Cc1ccccc1-2 (centres undefined),inconclusive: -5.3%
13,CCN(CC)CCCn1c(=S)[nH]c2cc(OC)c(OC)cc2c1=O,inconclusive: -10.4%
14,CCN=C1SC(CC(=O)NC2CCCCC2)C(=O)N1CC (centres undefined),inconclusive: -0.8%
15,CCOC(=O)c1c(C)n(C)c2ccc(OC)c(NC(=O)CN3CCC(C(=O)OCC)CC3)c12,inconclusive: 0.5%
16,COc1ccc(CNC(=O)CSc2nnc(NC(=O)C3CC3)s2)cc1,inactive: -0.4%
17,COc1ccc(C(=O)NCC(=O)OCC(=O)N2N=C(c3ccc(Cl)cc3)CC2c2ccco2)cc1OC (centres undefined),inactive: -1.1%
18,O=C(Nc1ccc2c(c1)OCCO2)c1ccoc1,inconclusive: 2%
19,COc1cccc(/C=N/n2c(COc3ccccc3)n[nH]c2=S)c1,inactive: -5.3%
20,COc1cc(/C=N/Nc2nn3cnnc3c3ccccc23)ccc1O,inconclusive: -2.4%

row,SMILES,inhibition
1,NC(=O)C1CCN(c2oc(-c3ccccc3)nc2S(=O)(=O)c2ccc(Br)cc2)CC1,inconclusive: 2.4%
2,Cc1ccc(C(=O)CN(C(=O)c2ccc(Cl)c(Cl)c2)N2C(=O)C3CCCCC3C2=O)cc1C (centres undefined),inconclusive: -2.3%
3,Cc1ccc(NNC(=O)c2c(C)noc2C)cc1Cl,inconclusive: -4.4%
4,COc1cccc(-c2nnn(CCC(=O)O)n2)c1,inconclusive: 1.9%
5,CC1(C)CC2(CC(C)(C(=O)CSc3nc4ccccc4s3)OC2=O)C(=O)O1 (centres undefined),inconclusive: 0.4%
6,CCn1c2ccccc2c2nc3cc(OC)c(OC)cc3nc21,active: 50.3%
7,Cn1cccc1C(=O)NS(=O)(=O)c1ccccc1Cl,inconclusive: 12.3%
8,Cn1nc(C(=O)NC2CCCCCC2)ccc1=O,inconclusive: -1.2%
9,O=C1O[C@@H](c2ccccc2)C[C@@H](O)[C@H](O)CCCc2ccccc21,inactive: 0.9%
10,N#C/C(=C\c1cc2c(cc1Br)OCO2)C(=O)NCC1CCCO1 (centres undefined),inconclusive: -80.1%
11,CCCn1cnc2c(sc3nc4c(cc32)CSC(C)(C)C4)c1=O,inconclusive: -1.8%
12,COCCn1cnc2c(c1=O)c1nc3ccccc3nc1n2/N=C/c1cccc(OC)c1,inconclusive: 3.8%
13,O=C(Nc1cccn(Cc2c(Cl)cccc2Cl)c1=O)c1ccccc1Cl,inconclusive: 0.7%
14,Cc1ccc2nc(NCCCO)nc(-c3ccccc3)c2c1,inactive: 0.8%
15,O=S(=O)(NCc1ccccc1Br)c1cccs1,inconclusive: 6.2%
16,S=c1[nH]nc(Cc2ccccc2)n1Cc1ccco1,inconclusive: 26.9%
17,COCCNc1nc(Oc2cccc3ccccc23)c2sccc2n1,inactive: 0%
18,NC(=O)N/N=C/c1ccccc1OCc1cccc2ccccc12,inconclusive: -2.6%
19,CN(Cc1ccccc1)C(=O)c1ccc(NC(=O)Cc2ccc(NC(=O)C3CCN(C(=O)c4ccccc4)CC3)cc2)cc1,inactive: 0.1%

# Copied from the results shown (2 entries):
row,SMILES,inhibition
10,CCCn1c(SCC(=O)OCc2ccccc2)nc2c1c(=O)n(C)c(=O)n2C,inconclusive: -5.8%
11,CCOC(=O)c1csc(COc2ccc(OC)cc2)n1,inconclusive: -17%
